From US20090247646A1, “USE OF RESVERATROL AND DERIVATIVES THEREOF FOR PROMOTING THE WELLNESS STATE IN MAMMALS” (priority 2006, published 2009)
This continues a long series; more values of the same kind are listed elsewhere.

System: gene expression in heart tissue
Assay: Genome-wide gene expression in heart tissue of old mice fed a resveratrol-supplemented diet (Affymetrix Mouse Genome 430 2.0 array)
Type: in vivo

Measured: Effect of resveratrol on changeing gene expression from old to young profile

Oc1ccc(/C=C/c2cc(O)cc(O)c2)cc1 [resveratrol, 3,4′,5-Trihydroxy-trans-stilbene]
60-70%: 1452545_a_at integrin beta 1 (fibronectin receptor beta) | 1454774_at expressed sequence AW610627 | 1456981_at transmembrane channel-like gene family 7
70-80%: 1453307_a_at anaphase-promoting complex subunit 5 | 1453604_a_at Hbs1-like (S. cerevisiae) | 1453960_a_at capping protein (actin filament) muscle Z-line, beta | 1454843_at phosphoribosyl pyrophosphate synthetase 2 | 1454966_at integrin alpha 8 | 1455173_at G1 to phase transition 1 | 1456315_a_at protein tyrosine phosphatase-like (proline instead of catalytic arginine), member a | 1456407_a_at tousled-like kinase 1 | 1460367_at high mobility group box transcription factor 1
80-90%: 1452879_at synaptopodin 2 | 1458302_at Mus musculus transcribed sequences
>100%: 1452478_at Mus musculus similar to heart alpha-kinase (LOC381181), mRNA | 1452690_at KH-type splicing regulatory protein | 1453406_a_at RAB28, member RAS oncogene family | 1454603_a_at CCR4-NOT transcription complex, subunit 2 | 1454675_at thyroid hormone receptor alpha | 1454696_at guanine nucleotide binding protein, beta 1 | 1454708_at actin-binding LIM protein 1 | 1454868_at expressed sequence AV028368 | 1454928_at hypothetical protein E130307D12 | 1455048_at immunoglobulin superfamily, member 2 | 1455101_at Mus musculus, clone IMAGE: 2647821, mRNA | 1455136_at ATPase, Na+/K+ transporting, alpha 2 polypeptide | 1455247_at angiomotin-like 1 | 1455285_at solute carrier family 31, member 1 | 1455404_at junctophilin 2 | 1455518_at Mus musculus transcribed sequences | 1455539_at glycosylphosphatidylinositol specific phospholipase D1 [BLAST] | 1455725_a_at H3 histone, family 3B | 1455870_at Mus musculus transcribed sequence with weak similarity to protein sp: Q9Y2D5 (H. sapiens) AKA2_HUMAN A-kinase anchor protein 2 (Protein kinase A anchoring protein 2) (PRKA2) | 1455961_at membrane metallo endopeptidase [BLAST] | 1456341_a_at basic transcription element binding protein 1 | 1456623_at tropomyosin 1, alpha | 1456930_at hypothetical protein 9530003A05 | 1460246_at methyl CpG binding protein 2 | 1460287_at tissue inhibitor of metalloproteinase 2 | 1460302_at thrombospondin 1 | 1460337_at SH3-domain kinase binding protein 1 | 1460556_at DNA Segment, Chr 15 Massachusetts Institute of Technology 260 | 1460565_at solute carrier family 41, member 1
<60%: 1452661_at transferrin receptor | 1453137_at F-box protein 30 | 1453818_a_at hypothetical gene supported by AK078282, AK078855, BC052508 | 1456398_at expressed sequence AI316828 | 1456620_at v-maf musculoaponeurotic fibrosarcoma oncogene family, protein B (avian) | 1459238_at Mus musculus transcribed sequences
90-100%: 1452670_at myosin, light polypeptide 9, regulatory | 1452985_at uveal autoantigen with coiled-coil domains and ankyrin repeats | 1453740_a_at cyclin L2 | 1454699_at sestrin 1 | 1455107_at Mus musculus transcribed sequence with weak similarity to protein pir: I58401 (M. musculus) I58401 protein-tyrosine kinase (EC 2.7.1.112) JAK3 —mouse | 1455156_at striatin, calmodulin binding protein | 1455393_at ceruloplasmin | 1456080_a_at tumor differentially expressed 1 | 1456813_at Mus musculus transcribed sequences | 1457701_at Mus musculus transcribed sequence with strong similarity to protein sp: P00722 (E. coli) BGAL_ECOLI Beta-galactosidase (Lactase) | 1460213_at golgi autoantigen, golgin subfamily a, 4 | 1460320_at beclin 1 (coiled-coil, myosin-like BCL2-interacting protein)
